Results from the supplement of paper PMC11732987, “Enantioselective OTUD7B fragment discovery through chemoproteomics screening and high-throughput optimisation” (Communications Chemistry, 2025).
The list shows a part of the results. The data scatter; read single values as rough.

By UniProt entry, the sequences of proteins in these tests, tags left out. Where a name states a change or a piece, a line headed by the entry shows the natural chain unless it says otherwise. Residues count along the entry.
UniProt Q9P2W9: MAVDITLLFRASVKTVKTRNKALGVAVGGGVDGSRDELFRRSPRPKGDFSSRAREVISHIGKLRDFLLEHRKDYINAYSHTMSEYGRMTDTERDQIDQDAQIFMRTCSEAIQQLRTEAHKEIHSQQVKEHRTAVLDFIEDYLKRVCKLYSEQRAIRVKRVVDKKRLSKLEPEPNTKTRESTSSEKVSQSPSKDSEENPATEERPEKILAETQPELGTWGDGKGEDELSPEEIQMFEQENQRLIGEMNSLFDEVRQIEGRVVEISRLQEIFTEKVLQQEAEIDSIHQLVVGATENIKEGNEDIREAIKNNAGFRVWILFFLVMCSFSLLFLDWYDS
UniProt Q96EA4: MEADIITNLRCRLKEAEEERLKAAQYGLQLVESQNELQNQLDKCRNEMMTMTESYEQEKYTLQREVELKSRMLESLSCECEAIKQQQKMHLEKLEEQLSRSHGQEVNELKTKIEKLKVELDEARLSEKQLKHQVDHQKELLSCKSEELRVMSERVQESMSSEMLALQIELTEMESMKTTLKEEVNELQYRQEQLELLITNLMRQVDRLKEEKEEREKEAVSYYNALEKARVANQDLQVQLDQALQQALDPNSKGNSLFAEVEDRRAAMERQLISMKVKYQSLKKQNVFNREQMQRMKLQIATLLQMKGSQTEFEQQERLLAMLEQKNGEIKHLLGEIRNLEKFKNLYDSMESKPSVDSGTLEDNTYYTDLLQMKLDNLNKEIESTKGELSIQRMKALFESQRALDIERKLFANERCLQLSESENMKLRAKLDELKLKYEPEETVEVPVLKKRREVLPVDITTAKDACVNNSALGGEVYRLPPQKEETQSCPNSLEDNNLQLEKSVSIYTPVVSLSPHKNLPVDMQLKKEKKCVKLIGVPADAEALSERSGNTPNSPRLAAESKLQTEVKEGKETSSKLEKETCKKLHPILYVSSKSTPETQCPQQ
UniProt Q9BXP5: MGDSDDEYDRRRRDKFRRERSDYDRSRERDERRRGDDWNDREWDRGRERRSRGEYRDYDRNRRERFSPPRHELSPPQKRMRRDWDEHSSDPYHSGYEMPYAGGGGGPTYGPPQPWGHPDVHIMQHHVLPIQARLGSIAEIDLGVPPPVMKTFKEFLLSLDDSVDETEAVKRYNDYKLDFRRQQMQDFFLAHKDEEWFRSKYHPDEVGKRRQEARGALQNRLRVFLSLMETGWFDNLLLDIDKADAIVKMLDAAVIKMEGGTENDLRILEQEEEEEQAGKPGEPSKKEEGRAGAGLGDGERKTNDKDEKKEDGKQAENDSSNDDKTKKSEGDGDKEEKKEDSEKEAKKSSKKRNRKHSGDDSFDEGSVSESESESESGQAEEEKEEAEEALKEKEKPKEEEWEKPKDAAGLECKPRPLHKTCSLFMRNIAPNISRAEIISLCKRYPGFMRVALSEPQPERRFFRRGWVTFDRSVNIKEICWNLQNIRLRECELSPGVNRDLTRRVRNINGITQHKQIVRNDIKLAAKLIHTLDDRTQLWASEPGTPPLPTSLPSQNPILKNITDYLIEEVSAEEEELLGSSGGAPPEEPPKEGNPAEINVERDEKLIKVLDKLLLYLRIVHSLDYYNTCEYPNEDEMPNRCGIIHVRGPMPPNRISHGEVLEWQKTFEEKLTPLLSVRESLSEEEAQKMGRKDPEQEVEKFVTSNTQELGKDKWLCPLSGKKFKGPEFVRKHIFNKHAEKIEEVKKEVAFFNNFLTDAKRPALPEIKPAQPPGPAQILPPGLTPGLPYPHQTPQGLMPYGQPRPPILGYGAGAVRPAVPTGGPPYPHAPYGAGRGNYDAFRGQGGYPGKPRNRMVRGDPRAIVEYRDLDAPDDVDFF
UniProt Q9UHB9: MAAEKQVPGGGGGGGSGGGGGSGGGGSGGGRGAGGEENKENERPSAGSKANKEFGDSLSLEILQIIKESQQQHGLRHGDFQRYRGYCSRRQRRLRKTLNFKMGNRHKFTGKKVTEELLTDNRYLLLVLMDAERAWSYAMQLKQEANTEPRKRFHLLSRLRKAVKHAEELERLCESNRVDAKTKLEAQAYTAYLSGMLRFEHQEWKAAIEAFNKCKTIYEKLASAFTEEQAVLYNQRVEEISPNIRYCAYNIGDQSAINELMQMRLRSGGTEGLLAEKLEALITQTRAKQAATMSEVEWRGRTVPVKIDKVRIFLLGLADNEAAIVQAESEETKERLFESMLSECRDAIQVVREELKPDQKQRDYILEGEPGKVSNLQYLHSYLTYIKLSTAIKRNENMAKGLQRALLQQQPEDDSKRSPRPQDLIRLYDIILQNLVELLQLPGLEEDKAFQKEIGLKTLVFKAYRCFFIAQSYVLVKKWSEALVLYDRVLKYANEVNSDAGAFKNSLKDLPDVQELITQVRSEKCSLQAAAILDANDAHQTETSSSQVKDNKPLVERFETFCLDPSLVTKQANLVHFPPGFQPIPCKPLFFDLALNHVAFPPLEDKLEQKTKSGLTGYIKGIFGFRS
UniProt Q96SB4, 346-375: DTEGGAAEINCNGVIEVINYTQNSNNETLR
UniProt Q13586: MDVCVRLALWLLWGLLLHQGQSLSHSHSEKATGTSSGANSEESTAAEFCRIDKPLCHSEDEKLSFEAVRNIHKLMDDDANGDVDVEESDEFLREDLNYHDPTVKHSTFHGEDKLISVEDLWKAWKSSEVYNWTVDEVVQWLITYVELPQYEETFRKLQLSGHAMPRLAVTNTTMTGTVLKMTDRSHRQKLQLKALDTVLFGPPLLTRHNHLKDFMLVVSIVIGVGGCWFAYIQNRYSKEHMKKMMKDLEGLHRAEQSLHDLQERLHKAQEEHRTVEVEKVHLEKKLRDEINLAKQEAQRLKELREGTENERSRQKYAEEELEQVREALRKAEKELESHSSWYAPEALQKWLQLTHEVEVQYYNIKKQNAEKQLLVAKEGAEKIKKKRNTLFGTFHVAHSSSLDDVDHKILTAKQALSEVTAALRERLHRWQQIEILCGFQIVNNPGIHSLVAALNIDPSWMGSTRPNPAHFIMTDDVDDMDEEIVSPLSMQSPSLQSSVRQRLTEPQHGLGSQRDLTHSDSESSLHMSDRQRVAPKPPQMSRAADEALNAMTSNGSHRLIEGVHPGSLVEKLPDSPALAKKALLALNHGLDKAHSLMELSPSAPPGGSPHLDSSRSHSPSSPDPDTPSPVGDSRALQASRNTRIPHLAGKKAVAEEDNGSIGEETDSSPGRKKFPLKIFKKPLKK
UniProt Q9BVQ7: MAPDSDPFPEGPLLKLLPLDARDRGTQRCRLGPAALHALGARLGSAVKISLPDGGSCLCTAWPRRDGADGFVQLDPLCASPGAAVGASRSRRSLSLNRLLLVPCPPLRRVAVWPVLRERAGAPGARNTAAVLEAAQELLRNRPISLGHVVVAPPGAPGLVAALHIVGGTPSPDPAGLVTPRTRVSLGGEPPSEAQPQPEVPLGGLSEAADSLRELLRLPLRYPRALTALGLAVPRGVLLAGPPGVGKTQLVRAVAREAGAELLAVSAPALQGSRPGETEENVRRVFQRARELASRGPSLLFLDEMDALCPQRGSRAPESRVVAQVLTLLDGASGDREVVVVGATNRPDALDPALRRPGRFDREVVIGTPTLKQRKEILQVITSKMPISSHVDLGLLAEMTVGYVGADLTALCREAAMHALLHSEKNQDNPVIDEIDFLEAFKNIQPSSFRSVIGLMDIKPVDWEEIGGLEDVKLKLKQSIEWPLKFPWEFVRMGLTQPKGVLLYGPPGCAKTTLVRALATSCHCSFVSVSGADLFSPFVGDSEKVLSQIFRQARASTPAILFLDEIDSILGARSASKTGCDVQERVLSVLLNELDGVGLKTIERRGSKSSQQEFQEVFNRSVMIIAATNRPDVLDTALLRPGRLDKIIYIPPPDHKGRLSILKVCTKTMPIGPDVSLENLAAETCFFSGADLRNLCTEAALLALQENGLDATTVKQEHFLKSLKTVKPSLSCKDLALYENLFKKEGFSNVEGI
UniProt Q15833: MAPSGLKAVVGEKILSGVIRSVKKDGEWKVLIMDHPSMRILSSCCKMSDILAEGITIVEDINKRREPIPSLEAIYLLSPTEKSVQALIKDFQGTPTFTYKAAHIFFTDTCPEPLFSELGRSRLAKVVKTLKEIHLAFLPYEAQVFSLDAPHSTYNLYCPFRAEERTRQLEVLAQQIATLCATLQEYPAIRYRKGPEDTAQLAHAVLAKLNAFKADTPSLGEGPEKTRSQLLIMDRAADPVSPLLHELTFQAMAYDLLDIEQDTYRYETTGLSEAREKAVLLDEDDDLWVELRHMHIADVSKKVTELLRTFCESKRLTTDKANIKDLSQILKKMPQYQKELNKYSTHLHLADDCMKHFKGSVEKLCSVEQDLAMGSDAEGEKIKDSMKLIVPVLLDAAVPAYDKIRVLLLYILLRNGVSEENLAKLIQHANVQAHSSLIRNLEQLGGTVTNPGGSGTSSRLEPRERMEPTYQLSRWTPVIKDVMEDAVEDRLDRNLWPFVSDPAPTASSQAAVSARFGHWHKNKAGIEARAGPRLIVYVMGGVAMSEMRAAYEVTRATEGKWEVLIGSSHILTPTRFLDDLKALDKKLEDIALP
UniProt Q8N5C6, 142-166: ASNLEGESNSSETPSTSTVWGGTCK
UniProt Q5T280, 191-212: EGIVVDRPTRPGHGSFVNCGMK
UniProt Q8NEM7: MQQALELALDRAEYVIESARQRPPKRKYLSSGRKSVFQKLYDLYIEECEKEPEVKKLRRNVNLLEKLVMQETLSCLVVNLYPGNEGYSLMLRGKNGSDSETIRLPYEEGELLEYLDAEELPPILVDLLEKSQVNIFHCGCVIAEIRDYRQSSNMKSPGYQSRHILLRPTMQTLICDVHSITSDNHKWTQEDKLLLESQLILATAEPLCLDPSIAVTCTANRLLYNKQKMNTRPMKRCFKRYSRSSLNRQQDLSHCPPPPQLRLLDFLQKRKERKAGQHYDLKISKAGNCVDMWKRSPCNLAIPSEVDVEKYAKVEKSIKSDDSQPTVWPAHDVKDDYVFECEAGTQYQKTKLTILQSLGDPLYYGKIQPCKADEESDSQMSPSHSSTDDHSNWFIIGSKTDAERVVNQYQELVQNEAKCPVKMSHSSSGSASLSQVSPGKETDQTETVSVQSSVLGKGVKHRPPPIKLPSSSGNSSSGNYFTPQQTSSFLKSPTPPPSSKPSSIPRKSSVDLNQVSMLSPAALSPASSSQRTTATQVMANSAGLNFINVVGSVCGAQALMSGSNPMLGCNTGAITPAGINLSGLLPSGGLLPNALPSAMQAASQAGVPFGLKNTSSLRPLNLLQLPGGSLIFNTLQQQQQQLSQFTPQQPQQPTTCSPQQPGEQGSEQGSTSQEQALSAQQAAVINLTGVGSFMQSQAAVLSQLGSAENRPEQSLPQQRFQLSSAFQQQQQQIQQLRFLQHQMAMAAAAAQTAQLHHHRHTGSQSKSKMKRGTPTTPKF
UniProt Q9NRL3: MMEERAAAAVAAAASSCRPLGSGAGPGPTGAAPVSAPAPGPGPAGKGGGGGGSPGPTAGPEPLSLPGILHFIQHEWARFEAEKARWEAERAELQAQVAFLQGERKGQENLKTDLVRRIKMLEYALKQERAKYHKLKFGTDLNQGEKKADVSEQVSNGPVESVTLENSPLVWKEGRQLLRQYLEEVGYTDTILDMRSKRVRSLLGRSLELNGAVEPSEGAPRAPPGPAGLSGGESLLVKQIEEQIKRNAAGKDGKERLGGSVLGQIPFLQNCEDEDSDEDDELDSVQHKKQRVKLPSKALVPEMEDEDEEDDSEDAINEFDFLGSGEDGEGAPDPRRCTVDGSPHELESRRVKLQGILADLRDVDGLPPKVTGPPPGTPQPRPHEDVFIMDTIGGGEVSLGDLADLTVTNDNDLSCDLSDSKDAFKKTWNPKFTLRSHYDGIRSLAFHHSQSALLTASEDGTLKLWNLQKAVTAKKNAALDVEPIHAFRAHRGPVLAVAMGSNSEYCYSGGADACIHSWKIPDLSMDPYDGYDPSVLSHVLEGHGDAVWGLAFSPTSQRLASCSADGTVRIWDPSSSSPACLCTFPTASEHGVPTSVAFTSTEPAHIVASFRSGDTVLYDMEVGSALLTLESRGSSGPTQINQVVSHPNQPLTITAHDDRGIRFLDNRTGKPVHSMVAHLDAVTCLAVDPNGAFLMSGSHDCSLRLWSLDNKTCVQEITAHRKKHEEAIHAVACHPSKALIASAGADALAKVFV
UniProt Q9UNE7: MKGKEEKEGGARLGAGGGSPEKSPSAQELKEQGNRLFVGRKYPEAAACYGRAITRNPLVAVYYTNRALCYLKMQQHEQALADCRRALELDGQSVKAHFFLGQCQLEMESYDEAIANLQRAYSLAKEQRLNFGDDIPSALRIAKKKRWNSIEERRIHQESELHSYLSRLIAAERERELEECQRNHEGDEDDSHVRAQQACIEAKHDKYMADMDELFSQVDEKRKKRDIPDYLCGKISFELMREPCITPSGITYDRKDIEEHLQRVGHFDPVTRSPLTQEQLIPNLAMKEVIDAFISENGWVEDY

Tests used:
[1] = compound: ClCC(=O)N[C@@H]1CCCc2ccccc12; assay: log2 mean competition ratio of IA-DTB cysteine labelling (DMSO/compound) (log2 ratio); higher = stronger cysteine engagement by compound; conditions: treatment time: 4 h, cell line lysate: HEK293T
Experimental: (§1)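 IA-DTB competitive cysteine chemoproteomics in HEK293T RIPA lysate. Lysates were treated with compound 29 or 30 at 50 or 200 µM for 4 h, then IA-DTB (500 µM, 1 h), trypsin-digested, NeutrAvidin-enriched and analysed by diaPASEF. Competition ratio = intensity DMSO / intensity compound (n=4 treated, n=64 DMSO); binding: mean log2 CR ≥ 1 and p ≤ 0.05 plus QC filters. Target is the cysteine site.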

[2] = compound: ClCC(=O)N[C@H]1CCCc2ccccc12; assay: as above; conditions: treatment time: 4 h, cell line lysate: HEK293T
Experimental: as §1

| Target | log2 mean competition ratio ([1]; 50 µM) | log2 mean competition ratio ([1]; 200 µM) | log2 mean competition ratio ([2]; 50 µM) | log2 mean competition ratio ([2]; 200 µM) |
| --- | --- | --- | --- | --- |
| SPG11 C1890 (UniProt Q96JI7) | 0.272 | -0.121 | -0.0021 | 0.0122 |
| STX18 C107 (UniProt Q9P2W9) | 0.387 | 0.0529 | 0.306 | 0.00588 |
| SPG7 C353 (UniProt Q9UQ90) | 0.0378 | -0.0473 | 0.578 | 0.163 |
| SPDL1 C490 (UniProt Q96EA4) | 0.119 | -0.392 | -0.421 | -0.348 |
| SRRT C412 (UniProt Q9BXP5) | 0.369 | -0.133 | 0.391 | -0.267 |
| SRP68 C344 (UniProt Q9UHB9) | 0.139 | 0.0971 | 0.0528 | 0.185 |
| SRPK1 C356 (UniProt Q96SB4) | -0.527 | -0.0119 | 0.142 | -0.236 |
| STIM1 C56 (UniProt Q13586) | 0.0819 | 0.273 | -0.541 | -0.0735 |
| SPATA5L1 C509 (UniProt Q9BVQ7) | 0.179 | 0.0463 | 0.501 | 0.0692 |
| SUCLG1 C60 (UniProt P53597) | 0.138 | -0.151 | 0.326 | -0.149 |
| SPRTN C205 (UniProt Q9H040) | -0.0388 | -0.0818 | -0.0358 | -0.231 |
| STAT2 C676 (UniProt P52630) | -0.314 | -0.417 | -0.52 | 0.155 |
| SRPK1 C502 (UniProt Q96SB4) | -0.0106 | 0.23 | -0.185 | -0.0295 |
| STAT3 C367 (UniProt P40763) | -0.346 | -0.31 | -0.595 | -0.351 |
| SWT1 C127 | -0.282 | -0.0291 | -0.486 | 0.00543 |
| STXBP2 C353 (UniProt Q15833) | 0.389 | 0.413 | -0.164 | 0.0669 |
| SRBD1 C165 (UniProt Q8N5C6) | -0.238 | -0.0866 | 0.618 | 0.0489 |
| SPOUT1 C209 (UniProt Q5T280) | 0.348 | 0.143 | -0.23 | -0.162 |
| SUPT20H C289 (UniProt Q8NEM7) | 0.273 | 0.421 | -0.291 | 0.338 |
| STRN4 C337 (UniProt Q9NRL3) | 0.136 | 0.0428 | -0.023 | -0.0399 |
| SRGAP2 C1020 | 0.00513 | -0.00535 | 0.141 | -0.024 |
| SUGT1 C49 (UniProt Q9Y2Z0) | – | – | -0.227 | -0.214 |
| STUB1 C199 (UniProt Q9UNE7) | -0.0801 | -0.361 | 0.636 | -0.0529 |

Whole records, quoted from the list. Values in the order: log2 mean competition ratio ([1]; 50 µM)	log2 mean competition ratio ([1]; 200 µM)	log2 mean competition ratio ([2]; 50 µM)	log2 mean competition ratio ([2]; 200 µM)
SRRT C412 (UniProt Q9BXP5) reads 0.369	-0.133	0.391	-0.267
SPATA5L1 C509 (UniProt Q9BVQ7) reads 0.179	0.0463	0.501	0.0692
